The values that follow come from patent publication US20200181677A1, “SCREENING SYSTEM AND METHODS FOR IDENTIFYING ENZYME SUBSTRATES AND MODULATORS OF ENZYME ACTIVITY” (Regents of the University of Minnesota, priority 2017, published 2020).

Experiment [1] has as its target human PKCα catalytic domain (human) (UniProt P17252). Kind of experiment: affinity by steady-state FRET of the corresponding sensors (FIGS. 6B, 6C).
Experiment [2] has the same target. Kind of experiment: steady-state FRET of the corresponding sensors (legend of FIG. 6B).
Experiment [3] shares this target. Kind of experiment: steady-state FRET of sensors (FIG. 4B).
The target is the same in experiment [4]. Briefly: FRET intensity ratio of SPASM sensors (FIG. 9B).
Experiment [5] has the same target. Briefly: affinity by FRET of the corresponding sensor; peptide used free in the activity assay (FIG. 5B).
Experiment [6] shares this target. Briefly: steady-state FRET of sensor, untreated against kinase inhibitors (FIG. 7).
The target is the same in experiment [7]. Briefly: steady-state FRET of sensors without nucleotide (FIG. 4B).
The target is the same in experiment [8]. Briefly: steady-state FRET ratio of 10 nm sensor (FIG. 5A).
Experiment [9] shares this target. Briefly: steady-state FRET of sensor with 100 µM ATP, titrated with BimI (FIG. 6A).
The target is the same in experiment [10]. Briefly: relative binding affinity by FRET (FIG. 4B).

These are yes or no findings as the source states them, for the method shown. Some binding calls cover weakened binding; strength is not graded here.

As for FKLKRKGSFKKFA [peptide #11 (Optimized PKCβ Sub.), substrate peptide], the binding result in [1] and in [2] was “binds” throughout.
As to KKKRFAFKKAF (peptide, not shown: large carriers; small tags and cut ends) [peptide #13 (MARCKS), alanine-substituted, in PKCα FRET sensor], the binding result in [3] and in experiment [4] was “binds” each time.
For the molecule RRFKRQGSFFYFF [peptide #12 (Optimized PKCζ Sub.), serine-containing substrate peptide], in experiment [5], the binding entry is reported as “binds”.
Turning to ARKRERTYAFGHHA [peptide #9 (Optimized AKT Sub.), alanine-substituted, in PKCα FRET sensor], the binding entry in [4] is listed as “binds”.
Turning to IVRKATLRRLL [peptide #8 (EGF Receptor), threonine-containing substrate peptide], the binding result in [1] and in experiment [2] was “binds” each time.
Take ASQKRPSQRH [peptide #6 (Myelin Basic Protein), serine-containing substrate peptide]: the binding entry in [1], in experiment [5] and in experiment [2] was “binds” in each case.
On to IVRKAALRRLL [peptide #8 (EGF Receptor substrate peptide), alanine-substituted, in PKCα FRET sensor], for which the binding entry in [6], in experiment [7], in [4], in experiment [8] and in experiment [9] was “binds” each time.
With RRRRAIIFI (peptide, not shown: large carriers; small tags and cut ends) [peptide #10 (Optimized PKA Sub.), alanine-substituted, in PKCα FRET sensor], the binding entry in [3] and in [4] was “binds” in each case.
For the molecule RRFKRQGAFFYFF (peptide, not shown: large carriers; small tags and cut ends) [peptide #12 (Optimized PKCζ Sub.), alanine-substituted, in PKCα FRET sensor], the binding result in experiment [10] and in experiment [4] was “binds” throughout.
For the molecule FKLKRKGAFKKFA [peptide #11 (Optimized PKCβ Sub.), alanine-substituted, in PKCα FRET sensor], the binding result in [4], in [8] and in experiment [9] was “binds” each time.
